Measurements reported in US4165312A, “Phosphorylated nonapeptides, processes for the preparation thereof and pharmaceutical compositions containing them” (Hoffmann-La Roche Inc., priority 1977, dated 1979).
Part of at least one peptide drawing is inferred or uncertain, most often the ends. Square brackets hold non-standard residues; d marks the D form. Ends that are not written are not given here. Peptide text beside a SMILES is read from it. pS = N[C@@H](COP(=O)(O)O)C(=O)O

Tests used:
rats [1] = assay: rising test in rats (vigilant state) after intravenous injection; type: in vivo, rat; settings: i.v., counted 90 min after injection for 3 hours, Test versus Control p <0.001
cats = settings: intravenous, 30 nMol/kg; cited from earlier work
rats [2] = settings: intravenous, 30 nMol/kg; cited from earlier work
isolated rat heads = settings: arterial perfusion on isolated rat heads; cited from earlier work
rabbits = settings: intra-cerebral-ventricular, 6 nMol/kg; cited from earlier work

Compound | T (%): frequency of rising of test animals, control animals set at 100% (rats [1]; dose 10 nMol/kg) [%] | effect on sleep (EEG recordings and passive behavioural tests) (cats) | effect on sleep (EEG recordings and passive behavioural tests) (rats [2]) | EEG readings (isolated rat heads) | physiological effect on EEG (rabbits) | T (%): frequency of rising of test animals, control animals set at 100% (rats [1]; dose 90 nMol/kg) [%]
C[C@H](NC(=O)[C@H](CC(=O)O)NC(=O)CNC(=O)CNC(=O)[C@H](C)NC(=O)[C@@H](N)Cc1c[nH]c2ccccc12)C(=O)N[C@@H](COP(=O)(O)O)C(=O)NCC(=O)N[C@@H](CCC(=O)O)C(=O)O (H-WAGGDA[pS]GE-OH) | 45 |  |  |  |  | 
WAGGDASGE [DSIP, L-Trp-L-Ala-Gly-Gly-L-Asp-L-Ala-L-Ser-Gly-L-Glu] |  | significant improvement in deep and paradoxal sleep | significant improvement in deep and paradoxal sleep | sleep equivalent | equivalent to the phenomena found during natural orthodox deep sleep | 54
